Patent US20230174630A1 (UNIVERSITY OF BRITISH COLUMBIA, published 2023)
Results are given in words; binding and its absence hold for the method and conditions named. Some binding calls cover weakened binding; strength is not graded here. For some assays here: Where a sequence is shown, tags or fusion partners need not be part of it. One block for each binder: values may come before it.

What was measured:
[1] = molecular target: HA-tagged ΔNLS-TDP-43 (human) (UniProt Q13148); test: co-localization immunocytochemistry (anti-MYC / anti-HA), co-transfected HEK293 cells
[2] = molecular target: T1, DAGWGNL (SEQ ID NO: 1) peptide conjugated to bovine serum albumin (human); test: SPR on peptide-BSA
T1 sequence (peptide, conjugated to BSA): DAGWGNL

[3] = molecular target: HA-tagged ΔNLS-TDP-43 (human) (UniProt Q13148); test: summary table; immunocytochemistry, binding to ΔNLS TDP-43 cytoplasmic aggregates
[4] = molecular target: HA-tagged ΔNLS-TDP-43 (human) (UniProt Q13148); test: immunocytochemistry, transfected HEK293FT cells; binding to ΔNLS TDP-43 cytoplasmic aggregates
[5] = molecular target: HA-tagged ΔNLS-TDP-43 (human) (UniProt Q13148); test: co-localization immunocytochemistry (anti-FLAG / anti-HA), co-transfected HEK293 cells
[6] = molecular target: HA-tagged ΔNLS-TDP-43 (human) (UniProt Q13148); test: immunocytochemistry (confocal co-localization) of HEK293T cells co-transfected with HA-tagged dNLS-TDP43 and the scFv; anti-c-Myc detects the scFv, anti-HA detects dNLS-TDP43, DAPI in the merge
[7] = molecular target: HA-tagged ΔNLS-TDP-43 (human) (UniProt Q13148); test: immunocytochemistry, transfected HEK293FT cells, 10 ug/ml

binding [2]: binds
B2: rabbit monoclonal antibody 17H3-17K3 (antibody, V domains shown)
VH: QEQLVESGGGLVQPGASLTLTCTASGFSFSSSYVMCWVRQAPGKGLEWITCSDTGINTWYASWAKGRFTISKTSSTTVTLQMTSLTAADTATYFCARRYTGDTYLGNFNLWGQGTLVTVS
VL: AQVLTQTPASVSAAVGGTVTINCQASQSVYKNNYLSWYQQKPGQPPKLLIYKASTLASGVPSRFKGSGSGTQFTLTISDVQCDDAATYYCAGGWRSLNAFGGGTEVVVK

binding [3]: binds
binding [2]: binds
binding [4]: binds
B4: rabbit monoclonal antibody 14H1-14K2 (antibody, V domains shown)
VH: QEQLEESGGDLVKPEGSLTLTCTASGFSFSSNYVMCWVRQAPGKGLEWVACIWFAGIVDTTYYATWAKGRFTISKTSSTTVTLQMTSLTAADTATYFCARNPVGSVNLWGQGTLVTVS
VL: VMTQTPSSKSVPVGGSVTINCQASESVYSNNRLSWYQQKPGQPPKLLIYYASTLESGVPSRFKGSGFGTHFTLTISGAQCDDAATYYCAGWRGARTDGVDFGGGTEVVVK

binding [3]: binds
binding [2]: binds
binding [4]: binds
B9: mouse monoclonal antibody 3E8 (antibody, V domains shown)
VH: DVKLVESGGGLVKLGGSLKLSCAASGFTFSSYYMSWVRQTPEKRLELVATINSNGGSTYYPDTVKGRITISRDNAKNTLQLQMSSLRSEDTALYYCVRQNYEGAYWGQGTLVTVSA
VL: DVLMTQTPLSLPVTLGDQASISCRSSQSIVHSNGNTYLEWYLQKPGQSPKLLIYKVSNRFSGVPDRFSGSGSGTDFTLKISRVEAEDLGVYYCFQSSHVPWTFGGGTKLEIK

binding [3]: binds
binding [4]: binds
B10: mouse monoclonal antibody 3F11 (antibody, V domains shown)
VH: DVKLVESGGDLVKLGGSLKLSCAASGFTFSSYYMSWVRQTPEKRLELVAVINTNGGSTYYPDTVKGRFTISRDNAKNTLYLQMSSLKSEDTALYYCVRQNYEGAYWGQGTLVTVSA
VL: DVLMTQTPLSLPVSLGDQASISCRSSQSIVHSNGNTYLEWYLQKPGQSPKLLIYKVSNRFSGVPDRFSGSGSGTDFTLKISRVEAEDLGVYYCFQSSHVPWTFGGGTKLEIK

binding [5]: binds
B11: YPTL-14H1-14K2 (scFv)
scFv: MQEQLEESGGDLVKPEGSLTLTCTASGFSFSSNYVMCWVRQAPGKGLEWVACIWFAGIVDTTYYATWAKGRFTISKTSSTTVTLQMTSLTAADTATYFCARNPVGSVNLWGQGTLVTVSSGGGGSGGGGSGGGGSVMTQTPSSKSVPVGGSVTINCQASESVYSNNRLSWYQQKPGQPPKLLIYYASTLESGVPSRFKGSGFGTHFTLTISGAQCDDAATYYCAGWRGARTDGVDFGGGTEVVVKDYKDDDDKRWRKSHSSSYTPLSGSTYPEGRH

binding [5]: binds
B12: YPTL-2F7 (scFv)
scFv: MDVKLVESGGGLVKLGGSLKLSCAASGFTFSSYYMSWVRQTPEKRLELVATINSNGGSTYYPDTVKGRITISRDNAKNTLQLQMSSLRSEDTALYYCVRQNYEGAYWGQGTLVTVSAGGGGSGGGGSGGGGSDVLMTQTPLSLPVTLGDQASISCRSSQSIVHSNGNTYLEWYLQKPGQSPKLLIYKVSNRFSGVPDRFSGSGSGTDFTLKISRVEAEDLGVYYCFQSSHVPWTFGGGTKLEIKDYKDDDDKRWRKSHSSSYTPLSGSTYPEGRH

binding [2]: binds
B14: rabbit monoclonal antibody 1H3-1K3 (antibody, V domains shown)
VH: QSVEESGGRLVTPGTPLTLTCTVSGFSLSRYYMTWVRQAPGKGLEYIGVIIPGGTTYYASWAKGRFTISKTSTTVDLRITSPTTEDTATYFCAGGPTGNSHFTLWGQGTLVTVS
VL: VMTQTPSSKSVPVGGTVTINCQASESVYNNNHLSWYQQKSGQPPKLLIYEASKLESGVPPRFKGSGSGTQFTLTISDVVCDDAATYYCSGYKRVTTDGIAFGGGTEVVVK

binding [3]: binds
binding [4]: binds
B15: rabbit monoclonal antibody 38H1-38K1 (antibody, V domains shown)
VH: QSVEESGGRLVTPGTPLTLTCTVSGFSFSAYYMTWVRQAPGKGLEFIGVTIPIGRTYYASWAKGRFTISKTSTTVHLKITSPTTEDTAAYFCAGGPTGNSHFTLWGQGTLVTVS
VL: VMTQTPSSKSVPVGDTVTINCQASESVYNNNQLSWYQQKPGQPPKLLIYQASKLESGVPSRFKGSGSGTQFTLTISDVVCDDAATYYCAGYKSPTTDGIAFGGGTEVVVK

binding [1]: binds
B17: MYCL20H-14H1-14K2 (scFv)
scFv: MAIVMTQTPSSKSVPVGGSVTINCQASESVYSNNRLSWYQQKPGQPPKLLIYYASTLESGVPSRFKGSGFGTHFTLTISGAQCDDAATYYCAGWRGARTDGVDFGGGTEVVVKGSTGGGGSGKPGSGEGGGGSQEQLEESGGDLVKPEGSLTLTCTASGFSFSSNYVMCWVRQAPGKGLEWVACIWFAGIVDTTYYATWAKGRFTISKTSSTTVTLQMTSLTAADTATYFCARNPVGSVNLWGQGTLVTVSSGSGEQKLISEEDL
notes: Intrabody: VL-20 aa linker-VH-GSG-MYC tag

Continued, binder first:

B1: MYCL15H-2F7 (scFv)
scFv: MDVLMTQTPLSLPVTLGDQASISCRSSQSIVHSNGNTYLEWYLQKPGQSPKLLIYKVSNRFSGVPDRFSGSGSGTDFTLKISRVEAEDLGVYYCFQSSHVPWTGGGTKLEIKGGGGSGGGGSGGGGSDVKLVESGGGLVKLGGSLKLSCAASGFTFSSYYMSWVRQTPEKRLELVATINSNGGSTYYPDTVKGRITISRDNAKNTLQLQMSSLRSEDTALYYCVRQNYEGAYWGQGTLVTVSAGSGEQKLISEEDL
binding [1]: binds

B3: MYCL15H-14H1-14K2 (scFv)
scFv: MAIVMTQTPSSKSVPVGGSVTINCQASESVYSNNRLSWYQQKPGQPPKLLIYYASTLESGVPSRFKGSGFGTHFTLTISGAQCDDAATYYCAGWRGARTDGVDFGGGTEVVVKGGGGSGGGGSGGGGSQEQLEESGGDLVKPEGSLTLTCTASGFSFSSNYVMCWVRQAPGKGLEWVACIWFAGIVDTTYYATWAKGRFTISKTSSTTVTLQMTSLTAADTATYFCARNPVGSVNLWGQGTLVTVSSGSGEQKLISEEDL
binding [1]: binds

B5: MYCH15L-2F7 (scFv)
scFv: MDVKLVESGGGLVKLGGSLKLSCAASGFTFSSYYMSWVRQTPEKRLELVATINSNGGSTYYPDTVKGRITISRDNAKNTLQLQMSSLRSEDTALYYCVRQNYEGAYWGQGTLVTVSAGGGGSGGGGSGGGGSDVLMTQTPLSLPVTLGDQASISCRSSQSIVHSNGNTYLEWYLQKPGQSPKLLIYKVSNRFSGVPDRFSGSGSGTDFTLKISRVEAEDLGVYYCFQSSHVPWTGGGTKLEIKGSGEQKLISEEDL
binding [1]: binds

B6: LYS-2F7 (scFv)
scFv: MDYKDDDDKDVKLVESGGGLVKLGGSLKLSCAASGFTFSSYYMSWVRQTPEKRLELVATINSNGGSTYYPDTVKGRITISRDNAKNTLQLQMSSLRSEDTALYYCVRQNYEGAYWGQGTLVTVSAGGGGSGGGGSGGGGSDVLMTQTPLSLPVTLGDQASISCRSSQSIVHSNGNTYLEWYLQKPGQSPKLLIYKVSNRFSGVPDRFSGSGSGTDFTLKISRVEAEDLGVYYCFQSSHVPWTFGGGTKLEIKGGGGSKSIRSGYEVM
binding [5]: binds

B7: MYCH20L-2F7 (scFv)
scFv: MDVKLVESGGGLVKLGGSLKLSCAASGFTFSSYYMSWVRQTPEKRLELVATINSNGGSTYYPDTVKGRITISRDNAKNTLQLQMSSLRSEDTALYYCVRQNYEGAYWGQGTLVTVSAGSTGGGGSGKPGSGEGGGGSDVLMTQTPLSLPVTLGDQASISCRSSQSIVHSNGNTYLEWYLQKPGQSPKLLIYKVSNRFSGVPDRFSGSGSGTDFTLKISRVEAEDLGVYYCFQSSHVPWTGGGTKLEIKGSGEQKLISEEDL
binding [6]: binds

B8: mouse monoclonal antibody 2F7 (antibody, V domains shown)
VH: DVKLVESGGGLVKLGGSLKLSCAASGFTFSSYYMSWVRQTPEKRLELVATINSNGGSTYYPDTVKGRITISRDNAKNTLQLQMSSLRSEDTALYYCVRQNYEGAYWGQGTLVTVSA
VL: DVLMTQTPLSLPVTLGDQASISCRSSQSIVHSNGNTYLEWYLQKPGQSPKLLIYKVSNRFSGVPDRFSGSGSGTDFTLKISRVEAEDLGVYYCFQSSHVPWTFGGGTKLEIK
binding [3]: binds
binding [2]: binds
binding [4]: binds
binding [7]: binds

B13: LYS-14H1-14K2 (scFv)
scFv: MDYKDDDDKQEQLEESGGDLVKPEGSLTLTCTASGFSFSSNYVMCWVRQAPGKGLEWVACIWFAGIVDTTYYATWAKGRFTISKTSSTTVTLQMTSLTAADTATYFCARNPVGSVNLWGQGTLVTVSGGGGSGGGGSGGGGSVMTQTPSSKSVPVGGSVTINCQASESVYSNNRLSWYQQKPGQPPKLLIYYASTLESGVPSRFKGSGFGTHFTLTISGAQCDDAATYYCAGWRGARTDGVDFGGGTEVVVKGGGGSKSIRSGYEVM
binding [5]: binds

B16: MYCH20L-14H1-14K2 (scFv)
scFv: MQEQLEESGGDLVKPEGSLTLTCTASGFSFSSNYVMCWVRQAPGKGLEWVACIWFAGIVDTTYYATWAKGRFTISKTSSTTVTLQMTSLTAADTATYFCARNPVGSVNLWGQGTLVTVSSGSTGGGGSGKPGSGEGGGGSAIVMTQTPSSKSVPVGGSVTINCQASESVYSNNRLSWYQQKPGQPPKLLIYYASTLESGVPSRFKGSGFGTHFTLTISGAQCDDAATYYCAGWRGARTDGVDFGGGTEVVVKGSGEQKLISEEDL
binding [1]: binds
